Results: PubChem BioAssay AID2551 (National Center for Advancing Translational Sciences (NCATS), 2010)
The campaign covered roughly 310,000 compounds. About 17,000 (5.5%) were called active. The shares of active, inactive and inconclusive entries below differ from those in the screen. Calls come from the whole dose curve; as a rule, active = well fitted inhibition curve with a large enough effect; inconclusive = small, poorly fitted or top-dose-only effect, or effect the other way; inactive = no such curve, though single readings can be large or run the other way. A potency beside an inconclusive call is a rough fit, not a confirmed value.

Chains of the proteins cited; added tags and fusions are not shown. Lines headed by an entry give the natural chain unless they say otherwise; changes in a name come on top.
UniProt P51450: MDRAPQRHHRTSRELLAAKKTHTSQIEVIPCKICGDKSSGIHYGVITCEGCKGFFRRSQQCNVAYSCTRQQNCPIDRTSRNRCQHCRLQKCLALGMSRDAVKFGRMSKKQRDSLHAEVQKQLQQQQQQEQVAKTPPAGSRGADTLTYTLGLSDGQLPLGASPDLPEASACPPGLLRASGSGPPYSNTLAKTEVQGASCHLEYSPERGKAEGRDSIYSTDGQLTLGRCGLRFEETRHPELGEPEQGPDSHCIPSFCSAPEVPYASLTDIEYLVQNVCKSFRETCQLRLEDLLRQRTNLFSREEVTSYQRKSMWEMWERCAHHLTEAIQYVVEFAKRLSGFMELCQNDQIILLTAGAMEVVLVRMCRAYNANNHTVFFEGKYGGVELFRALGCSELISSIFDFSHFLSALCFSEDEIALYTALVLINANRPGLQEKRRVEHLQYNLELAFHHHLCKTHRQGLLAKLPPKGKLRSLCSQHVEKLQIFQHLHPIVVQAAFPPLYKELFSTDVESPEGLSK

Target: Nuclear receptor ROR-gamma (Mus musculus) (UniProt P51450)
Experiment: qHTS for inhibitors of ROR gamma transcriptional activity; note: nearly all actives have a fitted effect of over 60% in size
Conditions: Drosophila S2 Gal4-RORgamma UAS-luciferase reporter, 20 h; activity change, negative = inhibition: at 53.6 µM (top of the series)
Method in brief: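 Compounds are pin-transferred onto Drosophila Schneider cells expressing a copper-inducible Gal4–ROR gamma transactivation domain fusion. After 1 hr, copper sulfate is added to 700 uM final; luciferase is read 20 hr later.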
% is set by controls: 0 for no effect and ±100 for the full control effect; potency is the fitted concentration of half-maximal effect.

Potency, inconclusive:
O=c1[nH]nc(CNc2ccc(C(F)(F)F)cc2)c2ccccc12 14.1 µM [activator, partial curve]
CCn1c(CSc2nc3ccccc3[nH]2)n[nH]c1=S 10 µM [inhibitor, partial curve]
C=CCn1c(SCC(N)=O)nnc1-c1cc2c(s1)CCC(CC)C2 (configuration not stated) 12.6 µM [activator, partial curve]
COC(=O)Cn1c(C)nc([N+](=O)[O-])c1Br 15.8 µM [inhibitor, partial curve, poor fit]
CCOC(=O)N1CCN(Cc2nc3c(c(=O)n(C)c(=O)n3C)n2Cc2cc(C)ccc2C)CC1 35.5 µM [inhibitor, single point]
Cc1ccc(/C=N/Nc2ccccn2)s1 28.2 µM [inhibitor, single point]
CCc1ccc(C(=O)COC(=O)C(Cc2ccccc2)NC(=O)c2ccc(Cl)cc2)cc1 (configuration not stated) 31.6 µM [activator, single point]
CCC(Sc1nc2ccsc2c(=O)n1-c1ccc(Cl)c(C)c1)C(=O)NCc1ccco1 (configuration not stated) 17.8 µM [activator, single point]
CC(=O)OCCN(C)c1cc(SC(C)C)c2nonc2c1[N+](=O)[O-] 25.1 µM [inhibitor, single point]
COc1cccc([C@@H]2Oc3ccc(Br)cc3C[C@H]2OC(=O)NCCc2ccc(OC)c(OC)c2)c1 28.2 µM [inhibitor, single point]
COc1c(C2=CC(=O)N(C)C2=O)c2c(n1C)C(=O)c1ccccc1C2=O 31.6 µM [inhibitor, single point]
CCN(CC)C(=O)CSc1nc2c(sc(=S)n2Cc2ccco2)c(=O)n1-c1ccccc1 11.2 µM [activator, partial curve]
COc1ccccc1CNC(=O)Cc1ccccc1 2 µM [activator, partial curve]
Cc1cccc(C(=O)n2c(=S)nc3cc(C)ccn32)c1 0.282 µM [inhibitor, full curve, poor fit]
Cc1ccc(C(C)C)c(OCC(=O)Nc2sc3c(c2C#N)CC(C)(C)NC3(C)C)c1 31.6 µM [inhibitor, single point]
Cc1cccc2nc(CSc3nc4ccc([N+](=O)[O-])cc4[nH]3)c(Br)n12 35.5 µM [inhibitor, single point]
O=C(CSc1nnc(-c2ccc(Cl)cc2)n1Cc1ccco1)NCc1ccc2c(c1)OCO2 12.6 µM [activator, single point]
O=c1[nH]cnc2c1N=C(c1cccc([N+](=O)[O-])c1)CC(c1ccccc1)N2 (configuration not stated) 15.8 µM [activator, single point]
S=c1[nH]nc(-c2cccnc2)n1-c1ccc2c(c1)OCCO2 35.5 µM [inhibitor, single point]
CN1CCN(CCCNC(=O)c2ccc(/C=C3\Sc4ccccc4N(Cc4ccccc4F)C3=O)cc2)CC1 3.16 µM [inhibitor, single point]
Cc1ccc(NC(=O)CN(C)C(=O)CCC(=O)c2cccs2)cc1 7.08 µM [activator, partial curve]
Cc1ccc(/C=C/C(=O)N2CC(=O)Nc3ccccc32)o1 12.6 µM [inhibitor, single point]
CCOC(=O)c1ccc(NC(=O)C2CCCN(S(=O)(=O)c3ccc(F)cc3)C2)cc1 (configuration not stated) 2.82 µM [activator, full curve, poor fit]
Cc1cc(NC(=S)N(CCCN2CCN(C)CC2)Cc2ccco2)ccc1Cl 7.94 µM [inhibitor, partial curve, poor fit]
CC(=O)c1cc2c(cc1NC(=O)CSc1nc3ccccc3[nH]1)OCO2 11.2 µM [activator, partial curve]

Three neighbouring records already listed:
Potency, inconclusive:
Cc1cccc2nc(CSc3nc4ccc([N+](=O)[O-])cc4[nH]3)c(Br)n12 35.5 µM [inhibitor, single point]
O=C(CSc1nnc(-c2ccc(Cl)cc2)n1Cc1ccco1)NCc1ccc2c(c1)OCO2 12.6 µM [activator, single point]
O=c1[nH]cnc2c1N=C(c1cccc([N+](=O)[O-])c1)CC(c1ccccc1)N2 (configuration not stated) 15.8 µM [activator, single point]

Following part.

Potency, active:
O=C(CSc1nnc(SCc2ccccc2)s1)N/N=C/c1c[nH]c2ccccc12 8.91 µM
CC(=O)N(C)c1ccc(N=Cc2c(O)ccc3ccccc23)cc1 11.2 µM
Cc1ccc2nc(-c3ccc4c(c3)OCCO4)cn2c1 0.398 µM
COc1ccc(C(=O)Nn2c(SCC(=O)NCc3ccccc3)nc3ccccc3c2=O)cc1 10 µM
COc1ccccc1-n1c(-c2cc(-c3ccc(F)cc3)n[nH]2)n[nH]c1=S 7.94 µM
COc1ccccc1-c1nnc(NC(=O)c2cccc(N3C(=O)CCC3=O)c2)o1 11.2 µM
S=C(Nc1cc(Cl)cc(Cl)c1)N1CCN(c2ccccn2)CC1 11.2 µM
Oc1ccc(-c2csc(Nc3ccccn3)n2)c(O)c1 11.2 µM

Activity change, negative = inhibition, inactive:
CCOC(=O)C1CCN(C(=O)CC(C)S(=O)(=O)c2ccc3c(c2)NC(=O)CO3)CC1 (configuration not stated) -16%
Cc1nc2nc(Cc3ccccc3)nn2c(C)c1Cl 32.5%
S=c1[nH]nc(Cn2cnc3ccccc32)n1-c1ccccc1Cl 17.9%
Cc1cccc(OCCn2c(CCCO)nc3ccccc32)c1 6.9%
Cc1cc(C(=O)N/N=C/C(Cl)=C/c2ccccc2)c(C)o1 -10.5%
CCCCC(O)(c1ccc(CC)cc1)C(CN1CCOCC1)c1ccccc1 (configuration not stated) 38.5%
COc1ccc(-c2nnc(SCC(=O)N3CCOCC3)o2)cc1 -24%
Cc1cccc(Oc2ccc(NC(=O)C3CC=CCC3C(=O)O)cc2)c1 (configuration not stated) 16.5%
CCC(Sc1nc(C)cc(C)n1)C(=O)Nc1ccc(Cl)cn1 (configuration not stated) 15.9%
COc1ccc(Cc2noc(CN3CCCC(C(=O)c4cccs4)C3)n2)cc1OC (configuration not stated) 32%
COc1ccc(OC(=O)c2cccc(S(=O)(=O)N3CCCC3)c2)cc1 -8.47%
CCOC(=O)c1nn(-c2ccccc2)cc1O -9.22%
Nc1ccc2c(c1)N1CCN=C1S2 6.04%
COC(=O)CN(c1ccc2c(c1)OCO2)S(=O)(=O)c1c(C)[nH]c(=O)[nH]c1=O -9.11%
